# Test results: paper PMC2164959
# These are yes or no findings as the source states them, for the method shown. In cells and extracts the contact can be indirect. Some results given as binding are weak or reduced against the parent protein; the word gives no strength.
# T1: calnexin (human (endogenous in HEK-293T and HeLa)) (UniProt P27824)
# T1 sequence: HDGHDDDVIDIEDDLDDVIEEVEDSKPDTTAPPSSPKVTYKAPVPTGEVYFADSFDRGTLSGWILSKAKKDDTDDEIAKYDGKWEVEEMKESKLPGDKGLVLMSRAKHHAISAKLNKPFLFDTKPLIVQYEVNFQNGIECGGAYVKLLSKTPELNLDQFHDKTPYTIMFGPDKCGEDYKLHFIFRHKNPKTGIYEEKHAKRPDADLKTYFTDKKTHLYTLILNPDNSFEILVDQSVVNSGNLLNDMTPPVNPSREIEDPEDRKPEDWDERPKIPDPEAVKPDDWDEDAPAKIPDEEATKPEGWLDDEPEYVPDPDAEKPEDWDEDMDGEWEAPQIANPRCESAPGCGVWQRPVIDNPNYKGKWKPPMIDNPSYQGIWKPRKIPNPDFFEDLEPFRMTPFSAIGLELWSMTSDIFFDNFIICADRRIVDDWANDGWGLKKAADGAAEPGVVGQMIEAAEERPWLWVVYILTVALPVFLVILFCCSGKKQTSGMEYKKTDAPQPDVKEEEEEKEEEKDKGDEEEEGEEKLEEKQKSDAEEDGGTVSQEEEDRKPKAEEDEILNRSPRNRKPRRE
# B1: calnexin (protein, UniProt P27824 21-592)
# chain: T1 sequence
# Experiments:
# [1] = molecular target: T1, calnexin (human (endogenous in HEK-293T and HeLa)); experiment: co-IP; HEK-293T transfected, CHAPS lysate; immunoprecipitation with anti-calnexin, blot with anti-E5-tag (anti-AU1 or anti-HA)
# [2] = molecular target: AU1-tagged codon-optimised HPV16 E5 (human papillomavirus type 16) (UniProt P06927); experiment: co-IP; HeLa transiently transfected, CHAPS lysate 24 h later; immunoprecipitation with anti-AU1, blot with anti-calnexin and anti-HLA-B, -C mAb HC10
# [3] = molecular target: HA-tagged HPV16 E5 (pCI-HPV16-E5-HA) (human papillomavirus type 16) (UniProt P06927); experiment: co-IP; HEK-293T transfected, lysed 20-24 h after transfection in CHAPS buffer (0.2 M NaCl, 50 mM HEPES pH 7.5, 2% CHAPS); immunoprecipitation by the tag of E5 (anti-AU1, anti-HA or anti-GFP), protein G-sepharose, blot with anti-calnexin
# [4] = molecular target: AU1-tagged codon-optimised HPV16 E5 (human papillomavirus type 16) (UniProt P06927); experiment: as above
# [5] = molecular target: GFP-E5 fusion (pEGFP-HPV16-E5) (human papillomavirus type 16) (UniProt P06927); experiment: as above
molecule,measurement,setting,value
AU1-tagged codon-optimised HPV16 E5 (from UniProt P06927 1-83),binding,[1],binds
HA-tagged HPV16 E5 (pCI-HPV16-E5-HA) (from UniProt P06927 2-83),binding,[1],binds
B1,binding,[2],binds
same,binding,[3],binds
same,binding,[4],binds
same,binding,[5],binds
